Results are given in words; binding and its absence hold for the method and conditions named. In cells and extracts the contact can be indirect. Some results given as binding are weak or reduced against the parent protein; the word gives no strength. Tags and fused reporters may be left off the sequences shown.
Target: T1, prolyl 3-hydroxylase family member 4 (P3H4) fused with 3 × FLAG tag at the C-terminal (UniProt Q92791)
T1 sequence: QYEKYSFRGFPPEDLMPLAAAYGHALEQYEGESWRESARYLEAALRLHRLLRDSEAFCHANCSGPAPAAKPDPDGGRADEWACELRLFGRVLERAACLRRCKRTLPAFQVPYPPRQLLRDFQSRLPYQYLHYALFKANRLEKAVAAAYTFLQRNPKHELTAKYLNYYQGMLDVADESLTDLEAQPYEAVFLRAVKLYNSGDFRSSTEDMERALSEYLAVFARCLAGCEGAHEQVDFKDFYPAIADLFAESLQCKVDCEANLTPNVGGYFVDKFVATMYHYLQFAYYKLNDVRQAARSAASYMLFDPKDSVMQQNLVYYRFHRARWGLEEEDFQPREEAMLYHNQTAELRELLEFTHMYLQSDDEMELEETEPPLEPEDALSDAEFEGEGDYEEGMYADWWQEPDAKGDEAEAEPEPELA
Assay: co-IP; FLAG-beads on RIPA lysates of A549 stable cell lines over-expressing P3H4-3xFLAG (OE) and negative control (NC); candidate partners detected by Western blot

For “Epidermal growth factor receptor (EGFR) (from UniProt P00533 25-1210)”, the binding was “binds”.
